For the assay, the target named is T1, PilQ full-length (PilQ_(FL/1-761)) (N. meningitidis) (UniProt Q70M91).
T1 sequence: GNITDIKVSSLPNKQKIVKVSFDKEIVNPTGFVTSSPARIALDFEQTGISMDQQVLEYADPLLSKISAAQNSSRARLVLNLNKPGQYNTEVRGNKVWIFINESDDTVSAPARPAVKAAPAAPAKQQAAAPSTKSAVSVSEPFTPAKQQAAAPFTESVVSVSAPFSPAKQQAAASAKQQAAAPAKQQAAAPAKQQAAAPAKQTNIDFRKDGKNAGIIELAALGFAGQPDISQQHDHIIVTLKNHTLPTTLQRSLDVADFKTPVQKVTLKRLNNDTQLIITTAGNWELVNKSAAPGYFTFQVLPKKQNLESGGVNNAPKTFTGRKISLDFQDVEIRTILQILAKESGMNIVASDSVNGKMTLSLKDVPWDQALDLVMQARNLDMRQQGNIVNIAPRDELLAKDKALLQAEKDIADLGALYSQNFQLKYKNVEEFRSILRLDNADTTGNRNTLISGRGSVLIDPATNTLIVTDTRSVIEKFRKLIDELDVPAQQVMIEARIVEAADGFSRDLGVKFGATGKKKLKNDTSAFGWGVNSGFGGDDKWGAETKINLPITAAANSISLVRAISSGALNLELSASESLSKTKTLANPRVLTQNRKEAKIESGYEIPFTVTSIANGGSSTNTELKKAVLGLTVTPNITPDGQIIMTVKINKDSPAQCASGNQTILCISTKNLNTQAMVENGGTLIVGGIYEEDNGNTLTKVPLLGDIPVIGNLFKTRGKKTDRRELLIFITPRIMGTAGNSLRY
Nature of the assay: far-Western, overlay or dot blot; 1 ug of each purified protein (PilQ proteins, PilN, PilO, PilP, PilF, PilT, ComP, ComL, purified pili, BSA) resolved by SDS-PAGE, blotted on nitrocellulose, renatured overnight at 4°C in renaturing buffer (0.25% gelatin, 0.5% BSA, 0.2% Triton X-100, 10 mM Tris-HCl, 5 mM β-mercaptoethanol, 100 mM NaCl, pH 7.5); membrane incubated 3 h with 1 ug purified full-length or partial PilG in 10 ml renaturing buffer; bound PilG detected with rabbit antiserum; both purified.

Results are given in words; binding and its absence hold for the method and conditions named. Binding can be weak; no strength is given.

Our source for the binding values is paper PMC4527729, “The Inner Membrane Protein PilG Interacts with DNA and the Secretin PilQ in Transformation”.

On to “PilG full-length (PilG_(FL/1-410)) (N. meningitidis MC58)”, for which the binding result is listed as “binds”.
For “PilG_(1-178) (N. meningitidis MC58) (domain or fragment)” the value was “binds”; for “PilG_(1-256) (N. meningitidis MC58) (domain or fragment)”, “binds”.
Regarding “PilG_(166-410) (N. meningitidis MC58) (domain or fragment)”, the binding entry is reported as “no binding (tested: 1 μg in 10 ml renaturing buffer)”.
For “PilG_(257-410) (N. meningitidis MC58) (domain or fragment)” the value was “no binding (tested: 1 μg in 10 ml renaturing buffer)”.
